# Source: PubChem BioAssay AID186 (DTP/NCI, 2004)
# Shown are survivors of the treated group in tumour-free mice. Counts of survivors are from the toxicity check (mostly the fifth day) where no day follows; animals may have died later. Schedules are NCI's codes, read here as Q, the interval in days (D) or hours (H), X, the number of doses.
# System: B6D2F1 mice, nontumored toxicity test, survival
# Assay: NCI In Vivo Anticancer Drug Screen. Data for tumor model Nontumored Animals (Toxicity Test) in B6D2F1 (BDF1) mice
compound,measurement,setting,value
N/C(=N\O)c1cn(C2OC(CO)C(O)C2O)c2ncnc(N)c12 (stereo unspecified),survivor count,"dose: 0.25 mg/kg/injection, schedule: Q03HX024 (ip), vehicle: saline",8 of 8
same,survivor count,"dose: 0.5 mg/kg/injection, schedule: Q01DX005 (ip), vehicle: saline",8 of 8
same,survivor count,"dose: 0.5 mg/kg/injection, schedule: Q01DX009 (ip), vehicle: saline",8 of 8
same,survivor count,"dose: 0.5 mg/kg/injection, schedule: Q03HX008 (ip), vehicle: saline",8 of 8
same,survivor count,"dose: 0.5 mg/kg/injection, schedule: Q03HX016 (ip), vehicle: saline",8 of 8
same,survivor count,"dose: 0.5 mg/kg/injection, schedule: Q03HX024 (ip), vehicle: saline",8 of 8
same,survivor count,"dose: 1.0 mg/kg/injection, schedule: Q01DX005 (ip), vehicle: saline",8 of 8
same,survivor count,"dose: 1.0 mg/kg/injection, schedule: Q01DX009 (ip), vehicle: saline",8 of 8
same,survivor count,"dose: 1.0 mg/kg/injection, schedule: Q03HX008 (ip), vehicle: saline",8 of 8
same,survivor count,"dose: 1.0 mg/kg/injection, schedule: Q03HX016 (ip), vehicle: saline",8 of 8
same,survivor count,"dose: 1.0 mg/kg/injection, schedule: Q03HX024 (ip), vehicle: saline",8 of 8
same,survivor count,"dose: 2.0 mg/kg/injection, schedule: Q01DX005 (ip), vehicle: saline",8 of 8
same,survivor count,"dose: 2.0 mg/kg/injection, schedule: Q01DX009 (ip), vehicle: saline",8 of 8
same,survivor count,"dose: 2.0 mg/kg/injection, schedule: Q03HX008 (ip), vehicle: saline",8 of 8
same,survivor count,"dose: 2.0 mg/kg/injection, schedule: Q03HX016 (ip), vehicle: saline",8 of 8
same,survivor count,"dose: 2.0 mg/kg/injection, schedule: Q03HX024 (ip), vehicle: saline",8 of 8
same,survivor count,"dose: 2.0 mg/kg/injection, schedule: Q04DX003 (ip), vehicle: saline",8 of 8
same,survivor count,"dose: 4.0 mg/kg/injection, schedule: Q01DX001 (ip), vehicle: saline",8 of 8
same,survivor count,"dose: 4.0 mg/kg/injection, schedule: Q01DX005 (ip), vehicle: saline",8 of 8
same,survivor count,"dose: 4.0 mg/kg/injection, schedule: Q01DX009 (ip), vehicle: saline",8 of 8
same,survivor count,"dose: 4.0 mg/kg/injection, schedule: Q01DX009 (oral), vehicle: saline",8 of 8
same,survivor count,"dose: 4.0 mg/kg/injection, schedule: Q03HX008 (ip), vehicle: saline",8 of 8
same,survivor count,"dose: 4.0 mg/kg/injection, schedule: Q03HX016 (ip), vehicle: saline",8 of 8
same,survivor count,"dose: 4.0 mg/kg/injection, schedule: Q03HX024 (ip), vehicle: saline",6 of 8
same,survivor count,"dose: 4.0 mg/kg/injection, schedule: Q04DX003 (ip), vehicle: saline",8 of 8
same,survivor count,"dose: 4.0 mg/kg/injection, schedule: Q08DX002 (ip), vehicle: saline",8 of 8
same,survivor count,"dose: 8.0 mg/kg/injection, schedule: Q01DX001 (ip), vehicle: saline",8 of 8
same,survivor count,"dose: 8.0 mg/kg/injection, schedule: Q01DX005 (ip), vehicle: saline",8 of 8
same,survivor count,"dose: 8.0 mg/kg/injection, schedule: Q01DX009 (ip), vehicle: saline",8 of 8
same,survivor count,"dose: 8.0 mg/kg/injection, schedule: Q01DX009 (oral), vehicle: saline",8 of 8
same,survivor count,"dose: 8.0 mg/kg/injection, schedule: Q04DX003 (ip), vehicle: saline",8 of 8
same,survivor count,"dose: 8.0 mg/kg/injection, schedule: Q08DX002 (ip), vehicle: saline",8 of 8
same,survivor count,"dose: 16.0 mg/kg/injection, schedule: Q01DX001 (ip), vehicle: saline",8 of 8
same,survivor count,"dose: 16.0 mg/kg/injection, schedule: Q01DX001 (oral), vehicle: saline",8 of 8
same,survivor count,"dose: 16.0 mg/kg/injection, schedule: Q01DX009 (oral), vehicle: saline",8 of 8
same,survivor count,"dose: 16.0 mg/kg/injection, schedule: Q04DX003 (ip), vehicle: saline",8 of 8
same,survivor count,"dose: 16.0 mg/kg/injection, schedule: Q08DX002 (ip), vehicle: saline",8 of 8
same,survivor count,"dose: 32.0 mg/kg/injection, schedule: Q01DX001 (ip), vehicle: saline",8 of 8
same,survivor count,"dose: 32.0 mg/kg/injection, schedule: Q01DX001 (oral), vehicle: saline",8 of 8
same,survivor count,"dose: 32.0 mg/kg/injection, schedule: Q01DX009 (oral), vehicle: saline",8 of 8
same,survivor count,"dose: 32.0 mg/kg/injection, schedule: Q04DX003 (ip), vehicle: saline",7 of 8
same,survivor count,"dose: 32.0 mg/kg/injection, schedule: Q08DX002 (ip), vehicle: saline",8 of 8
same,survivor count,"dose: 64.0 mg/kg/injection, schedule: Q01DX001 (oral), vehicle: saline",8 of 8
same,survivor count,"dose: 128.0 mg/kg/injection, schedule: Q01DX001 (oral), vehicle: saline",8 of 8
S=c1nc[nH]c2nc[nH]c12,survivor count,"dose: 9.38 mg/kg/injection, schedule: Q01DX009 (ip), vehicle: alkali diluted with water",5 of 5
same,survivor count,"dose: 11.25 mg/kg/injection, schedule: Q03HX015 (ip), vehicle: saline",8 of 8
same,survivor count,"dose: 18.8 mg/kg/injection, schedule: Q01DX009 (ip), vehicle: alkali diluted with water",5 of 5
same,survivor count,"dose: 22.5 mg/kg/injection, schedule: Q03HX015 (ip), vehicle: saline",8 of 8
same,survivor count,"dose: 37.5 mg/kg/injection, schedule: Q01DX009 (ip), vehicle: alkali diluted with water",5 of 5
same,survivor count,"dose: 60.0 mg/kg/injection, schedule: Q01HX006 (ip), vehicle: saline",8 of 8
same,survivor count,"dose: 60.0 mg/kg/injection, schedule: Q08DX002 (ip), vehicle: saline",8 of 8
same,survivor count,"dose: 75.0 mg/kg/injection, schedule: Q01DX009 (ip), vehicle: alkali diluted with water",5 of 5
same,survivor count,"dose: 90.0 mg/kg/injection, schedule: Q01DX005 (ip), vehicle: saline",8 of 8
same,survivor count,"dose: 90.0 mg/kg/injection, schedule: Q01HX006 (ip), vehicle: saline",8 of 8
same,survivor count,"dose: 90.0 mg/kg/injection, schedule: Q08DX002 (ip), vehicle: saline",8 of 8
same,survivor count,"dose: 120.0 mg/kg/injection, schedule: Q01HX006 (ip), vehicle: saline",8 of 8
same,survivor count,"dose: 150.0 mg/kg/injection, schedule: Q01DX009 (ip), vehicle: alkali diluted with water",5 of 5
same,survivor count,"dose: 180.0 mg/kg/injection, schedule: Q01DX005 (ip), vehicle: saline",8 of 8
same,survivor count,"dose: 180.0 mg/kg/injection, schedule: Q08DX002 (ip), vehicle: saline",8 of 8
same,survivor count,"dose: 270.0 mg/kg/injection, schedule: Q08DX002 (ip), vehicle: saline",8 of 8
same,survivor count,"dose: 360.0 mg/kg/injection, schedule: Q08DX002 (ip), vehicle: saline",8 of 8
[Cl][Pt+2][Cl].[NH-]C1CCCC1.[NH-]C1CCCC1,survivor count,"dose: 10.0 mg/kg/injection, schedule: Q01DX009 (ip), vehicle: Klucel (hydroxypropylcellulose) (HPC)",8 of 8
same,survivor count,"dose: 20.0 mg/kg/injection, schedule: Q01DX009 (ip), vehicle: Klucel (hydroxypropylcellulose) (HPC)",8 of 8
same,survivor count,"dose: 40.0 mg/kg/injection, schedule: Q01DX009 (ip), vehicle: Klucel (hydroxypropylcellulose) (HPC)",7 of 8
same,survivor count,"dose: 40.0 mg/kg/injection, schedule: Q04DX003 (ip), vehicle: Klucel (hydroxypropylcellulose) (HPC)",8 of 8
same,survivor count,"dose: 80.0 mg/kg/injection, schedule: Q01DX001 (ip), vehicle: Klucel (hydroxypropylcellulose) (HPC)",8 of 8
same,survivor count,"dose: 80.0 mg/kg/injection, schedule: Q01DX009 (ip), vehicle: Klucel (hydroxypropylcellulose) (HPC)",8 of 8
same,survivor count,"dose: 80.0 mg/kg/injection, schedule: Q04DX003 (ip), vehicle: Klucel (hydroxypropylcellulose) (HPC)",8 of 8
same,survivor count,"dose: 160.0 mg/kg/injection, schedule: Q01DX001 (ip), vehicle: Klucel (hydroxypropylcellulose) (HPC)",8 of 8
same,survivor count,"dose: 160.0 mg/kg/injection, schedule: Q01DX009 (ip), vehicle: Klucel (hydroxypropylcellulose) (HPC)",8 of 8
same,survivor count,"dose: 160.0 mg/kg/injection, schedule: Q04DX003 (ip), vehicle: Klucel (hydroxypropylcellulose) (HPC)",8 of 8
same,survivor count,"dose: 320.0 mg/kg/injection, schedule: Q01DX001 (ip), vehicle: Klucel (hydroxypropylcellulose) (HPC)",8 of 8
same,survivor count,"dose: 320.0 mg/kg/injection, schedule: Q04DX003 (ip), vehicle: Klucel (hydroxypropylcellulose) (HPC)",8 of 8
same,survivor count,"dose: 640.0 mg/kg/injection, schedule: Q01DX001 (ip), vehicle: Klucel (hydroxypropylcellulose) (HPC)",8 of 8
same,survivor count,"dose: 640.0 mg/kg/injection, schedule: Q04DX003 (ip), vehicle: Klucel (hydroxypropylcellulose) (HPC)",8 of 8
same,survivor count,"dose: 1280.0 mg/kg/injection, schedule: Q01DX001 (ip), vehicle: Klucel (hydroxypropylcellulose) (HPC)",8 of 8
